Experimental data: PubChem BioAssay AID743121 (NCATS, 2013)
The deposit covers about 26,000 reagents; this is a random part of them. 167 of them (0.63%) were called active. 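Calls are per gene from RSA p-values that are not deposited; an individual active-marked siRNA can sensitise only weakly.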 Reagents against one gene are numbered here. Not all columns of the deposit are shown.

- Screen: 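Knock-downs that sensitise breast cancer cells to camptothecin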 (primary screen)
- Cells: MDA-MB-231 cells, a human breast cancer line
- Knock-down reagent: single siRNA against human genes, 20 nM siRNA (0.8 pmol per well)
- Timing: 120 h (drug added 48 h after transfection, read 72 h later)
- Challenge: camptothecin 20 nM (about EC30) for 72 h; vehicle 0.1% DMSO in parallel plates
- Measurement: 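Cell viability by ATP luminescence (CellTiter-Glo) as % of non-targeting siRNA wells, and the log2 ratio of viability without drug over viability with camptothecin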
- Reading the numbers: log2 vehicle/camptothecin viability: higher = stronger sensitisation to camptothecin
- Hit rule: 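Active genes have an RSA gene-level p-value below 0.001, computed from the ratios of their separate siRNAs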

For MARK2 (GeneID 2011) #1, what does the deposit list?
log2 vehicle/camptothecin viability: -0.184; call: inactive

With MARK2 (GeneID 2011) #2, what was measured?
log2 vehicle/camptothecin viability: -0.41; call: inactive

With MARK2 (GeneID 2011) #3, what does the deposit list?
log2 vehicle/camptothecin viability: -0.674; call: inactive

What is on record for MARK2 (GeneID 2011) #4?
log2 vehicle/camptothecin viability: -0.13; call: inactive

What did the screen give for KDR (GeneID 3791) #1?
log2 vehicle/camptothecin viability: -0.149; call: inactive

For KDR (GeneID 3791) #2, what was measured?
log2 vehicle/camptothecin viability: 0.379; call: inactive

How did the screen score KDR (GeneID 3791) #3?
log2 vehicle/camptothecin viability: 0.0716; call: inactive

What is on record for KDR (GeneID 3791) #4?
log2 vehicle/camptothecin viability: -0.348; call: inactive

With ZNF467 (GeneID 168544) #1, what does the deposit list?
log2 vehicle/camptothecin viability: -0.0578; call: inactive

What did the screen give for ZNF467 (GeneID 168544) #2?
log2 vehicle/camptothecin viability: 0.309; call: inactive

With ZNF467 (GeneID 168544) #3, how do the results read?
log2 vehicle/camptothecin viability: -0.295; call: inactive

For ZNF467 (GeneID 168544) #4, what does the deposit list?
log2 vehicle/camptothecin viability: -0.399; call: inactive

With IP6K2 (GeneID 51447) #1, what does the deposit list?
log2 vehicle/camptothecin viability: 1.09; call: inactive

For IP6K2 (GeneID 51447) #2, what was measured?
log2 vehicle/camptothecin viability: -0.148; call: inactive

What did the screen give for IP6K2 (GeneID 51447) #3?
log2 vehicle/camptothecin viability: -0.186; call: inactive

Which result is listed for IP6K2 (GeneID 51447) #4?
log2 vehicle/camptothecin viability: 0.324; call: inactive

For NSD2 (GeneID 7468) #1, what was measured?
log2 vehicle/camptothecin viability: -0.277; call: inactive

How did the screen score NSD2 (GeneID 7468) #2?
log2 vehicle/camptothecin viability: 0.371; call: inactive

What is on record for NSD2 (GeneID 7468) #3?
log2 vehicle/camptothecin viability: -0.226; call: inactive

With NSD2 (GeneID 7468) #4, how do the results read?
log2 vehicle/camptothecin viability: -0.388; call: inactive

What is on record for NSD2 (GeneID 7468) #5?
log2 vehicle/camptothecin viability: 0.549; call: inactive

What is on record for NSD2 (GeneID 7468) #6?
log2 vehicle/camptothecin viability: -0.549; call: inactive

With NSD2 (GeneID 7468) #7, how do the results read?
log2 vehicle/camptothecin viability: 0.589; call: inactive

How did the screen score NSD2 (GeneID 7468) #8?
log2 vehicle/camptothecin viability: 0.318; call: inactive

For NUCKS1 (GeneID 64710) #1, what does the deposit list?
log2 vehicle/camptothecin viability: -0.226; call: inactive

With NUCKS1 (GeneID 64710) #2, how do the results read?
log2 vehicle/camptothecin viability: -0.265; call: inactive

How did the screen score NUCKS1 (GeneID 64710) #3?
log2 vehicle/camptothecin viability: -0.191; call: inactive

With NUCKS1 (GeneID 64710) #4, what was measured?
log2 vehicle/camptothecin viability: -0.0622; call: inactive

With MUTYH (GeneID 4595) #1, what does the deposit list?
log2 vehicle/camptothecin viability: -0.31; call: inactive

Which result is listed for MUTYH (GeneID 4595) #2?
log2 vehicle/camptothecin viability: -0.32; call: inactive

How did the screen score MUTYH (GeneID 4595) #3?
log2 vehicle/camptothecin viability: -0.548; call: inactive

For MUTYH (GeneID 4595) #4, how do the results read?
log2 vehicle/camptothecin viability: -0.33; call: inactive

For ACKR5 (GeneID 11318) #1, what was measured?
log2 vehicle/camptothecin viability: -0.531; call: inactive

What did the screen give for ACKR5 (GeneID 11318) #2?
log2 vehicle/camptothecin viability: -0.654; call: inactive

For ACKR5 (GeneID 11318) #3, what was measured?
log2 vehicle/camptothecin viability: -0.269; call: inactive

For ACKR5 (GeneID 11318) #4, what does the deposit list?
log2 vehicle/camptothecin viability: -0.326; call: inactive

In a second layout: 5 of the entries above
NSD2 (GeneID 7468) #1
- log2 vehicle/camptothecin viability: -0.277
- call: inactive

NSD2 (GeneID 7468) #2
- log2 vehicle/camptothecin viability: 0.371
- call: inactive

NSD2 (GeneID 7468) #3
- log2 vehicle/camptothecin viability: -0.226
- call: inactive

NSD2 (GeneID 7468) #4
- log2 vehicle/camptothecin viability: -0.388
- call: inactive

NSD2 (GeneID 7468) #5
- log2 vehicle/camptothecin viability: 0.549
- call: inactive
